Laboratory results: PubChem BioAssay AID1224826 (NIAID, 2016)

Test: 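Regulators of Tlr4 signalling leading to Tnf-alpha expression in macrophages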 (primary screen)
Cell system: RAW264.7 G9 macrophages from mouse bearing reporters for p65 (GFP) and the Tnf promoter (mCherry)
Reagents: siRNA pool against mouse genes, 100 nM
Timing: 16 h of LPS stimulation, after 2 days of siRNA transfection
Conditions: bacterial lipopolysaccharide (Salmonella minnesota R595), 10 ng/ml
Detection: 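Nuclear mCherry signal of the Tnf promoter reporter measured by imaging after background removal, scaled to each plate median and turned into robust z-scores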
Scale: Tnf reporter robust z-score: higher = stronger Tnf promoter reporter signal after LPS
Hit rule: 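Called active when robust z-score is at most -1.3, matching the median of the Tlr4 knock-down control, or over 3; control wells and wells with under 50 cells never active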
Meaning of the calls: active = Tnf reporter clearly lowered or raised; inactive = no clear change in Tnf reporter
Shown is one part, drawn at random, of about 17,000 reagents tested. About 1,110 of them (6.6%) were called active. 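Active means lowered or raised reporter signal; replicate intensities are raw and not normalised per plate.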 Unmarked entries are inactive. Further read-outs or replicates are left out here.

target	Tnf reporter robust z-score	fewer than 50 cells in well
Ntn1 (GeneID 18208)	0.52	enough cells in well
Nmnat2 (GeneID 226518)	-1.08	enough cells in well
Scel (GeneID 64929)	-0.89	enough cells in well
Rin2 (GeneID 74030)	0.02	enough cells in well
Elp2 (GeneID 58523)	0.11	enough cells in well
Mnx1 (GeneID 15285)	0.47	enough cells in well
Tlr4 (GeneID 21898)	-1.31 (active)	enough cells in well
Rpf1 (GeneID 70285)		fewer than 50 cells per well; well left out of calls
B3galt2 (GeneID 26878)	-0.64	enough cells in well
Fabp1 (GeneID 14080)	0.1	enough cells in well
Shb (GeneID 230126)	0.72	enough cells in well
Sec24d (GeneID 69608)	0.83	enough cells in well
Jtb (GeneID 23922)	-0.36	enough cells in well
Ncbp2as2 (GeneID 106264)	-0.98	enough cells in well
Gk2 (GeneID 14626)	-0.54	enough cells in well
Mtln (GeneID 67885)	-1.14	enough cells in well
Zp3 (GeneID 22788)	-0.63	enough cells in well
2900026A02Rik (GeneID 243219)		fewer than 50 cells per well; well left out of calls
Lamp2 (GeneID 16784)	0.24	enough cells in well
Zkscan17 (GeneID 268417)	3.18 (active)	enough cells in well
Clec2h (GeneID 94071)	0.71	enough cells in well
C1ql2 (GeneID 226359)	0.92	enough cells in well
Extl1 (GeneID 56219)	-0.49	enough cells in well
Sct (GeneID 20287)	0.25	enough cells in well
Cisd1 (GeneID 52637)	-0.4	enough cells in well
Ebpl (GeneID 68177)	0.38	enough cells in well
Gabre (GeneID 14404)	0.13	enough cells in well
Pde1c (GeneID 18575)	0.05	enough cells in well
Or3a4 (GeneID 259006)	-0.21	enough cells in well
Or1j11 (GeneID 258951)	-0.81	enough cells in well
D830016O14Rik (GeneID 319413)	2.81	enough cells in well
Snx14 (GeneID 244962)	-0.88	enough cells in well
Hlx (GeneID 15284)	0.27	enough cells in well
Helb (GeneID 117599)	0.16	enough cells in well
Mbl1 (GeneID 17194)	3.26 (active)	enough cells in well
Atp8b2 (GeneID 54667)	0.7	enough cells in well
Slc25a38 (GeneID 208638)	0.42	enough cells in well
Oas1d (GeneID 100535)	0.23	enough cells in well
Gng12 (GeneID 14701)	-0.02	enough cells in well
Kpna6 (GeneID 16650)	0.07	enough cells in well
